Laboratory results published in PubChem BioAssay AID198 (DTP/NCI, 2004).
The list does not hold the whole screen: it is rich in T/C values a quarter to a half above the control, in often repeated tests (any T/C) and in doses without a T/C. Further doses and runs are listed elsewhere. T/C gives the treated animals as a percentage of the vehicle group. Some entries give survivors of the animals treated and no T/C: the source files T/C as zero there, which appears to mark a toxic dose or a test without result, not a measured value. Some survivor counts are full or nearly so, which does not show that the dose was tolerated: the source hardly ever lists a survival T/C far under the control, and the zero likely stands for such cases as well. Survivors were counted at the toxicity check, usually on the fifth day, unless a day is given; later deaths do not show. Schedules are NCI's codes, taken here to give the interval after Q, in days (D) or hours (H), and the number of doses after X. Some entries hold several experiments; their values stand side by side, smallest first. For survival time, the PubChem record calls one and a half times the control and up active, and a quarter to a half above the control has no call in these data; cut-offs in other NCI protocols can differ. Some T/C values carry the count of animals alive at the toxicity check (mostly the fifth day); without a count, all were alive then.

System: B16 melanoma ip, C57BL/6 mice, median survival T/C
Assay: NCI In Vivo Anticancer Drug Screen. Data for tumor model B16 Melanoma (intraperitoneal) in C57BL/6 mice
Conditions: T/C endpoint: median survival time, higher T/C = longer survival
Method: The antitumor activity of compounds was measured in mice bearing transplantable tumors. Survival or tumor size were measured and the results are expressed as the measurement made in the treated group (T) divided by the measurement made in the vehicle treated control group (C). The tumor model used in this assay is B16 Melanoma (intraperitoneal) in C57BL/6 mice

[1] = dose: 30.0 mg/kg/injection, schedule: Q01DX009 (ip), vehicle: saline
[2] = dose: 120.0 mg/kg/injection, schedule: Q01DX009 (ip), vehicle: saline
[3] = dose: 240.0 mg/kg/injection, schedule: Q01DX009 (ip), vehicle: saline
[4] = dose: 200.0 mg/kg/injection, schedule: Q01DX009 (ip), vehicle: saline
[5] = dose: 12.5 mg/kg/injection, schedule: Q01DX009 (ip), vehicle: saline
[6] = dose: 25.0 mg/kg/injection, schedule: Q01DX009 (ip), vehicle: saline
[7] = dose: 3.13 mg/kg/injection, schedule: Q01DX009 (ip), vehicle: saline with Tween-80
[8] = dose: 6.25 mg/kg/injection, schedule: Q01DX009 (ip), vehicle: saline with Tween-80
[9] = dose: 12.5 mg/kg/injection, schedule: Q01DX009 (ip), vehicle: saline with Tween-80
[10] = dose: 25.0 mg/kg/injection, schedule: Q01DX009 (ip), vehicle: saline with Tween-80
[11] = dose: 40.0 mg/kg/injection, schedule: Q01DX009 (ip), vehicle: saline
[12] = dose: 50.0 mg/kg/injection, schedule: Q01DX009 (ip), vehicle: saline
[13] = dose: 0.13 mg/kg/injection, schedule: Q01DX009 (ip), vehicle: saline
[14] = dose: 0.25 mg/kg/injection, schedule: Q01DX009 (ip), vehicle: saline
[15] = dose: 15.0 mg/kg/injection, schedule: Q01DX009 (ip), vehicle: saline
[16] = dose: 100.0 mg/kg/injection, schedule: Q01DX009 (ip), vehicle: saline
[17] = dose: 400.0 mg/kg/injection, schedule: Q01DX009 (ip), vehicle: saline
[18] = dose: 3.0 mg/kg/injection, schedule: Q01DX009 (ip), vehicle: saline
[19] = dose: 400.0 mg/kg/injection, schedule: Q01DX009 (ip), vehicle: saline with Tween-80

Which survivor count [1] does the source give for CC(CN1CC(=O)NC(=O)C1)N1CC(=O)NC(=O)C1 (stereo not drawn) here?
The survivor count was 6 of 6.

And the survivor count [2]?
The survivor count was 6 of 6.

What about the survivor count [3] of the same compound?
Its survivor count is 6 of 6.

With COc1cc(/C=N\O)nc(-c2ccccn2)c1 as the compound, how does the survivor count [4] read?
The survivor count was 6 of 6.

What does the source list for O=NN(CCCl)C(=O)Nc1ccc(CCCl)cc1?
survivor count [5]: 6 of 6; survivor count [6]: 6 of 6

What does the source list for COc1cc(/C=C2/c3cc(Cl)ccc3-c3c(Cl)cc(Cl)cc32)cc(OC)c1OC?
survivor count [7]: 6 of 6; survivor count [8]: 6 of 6; survivor count [9]: 6 of 6; survivor count [10]: 6 of 6

Which survivor count [11] does the source give for COc1ccc(-c2c(C)c(C(=O)O)nc(-c3ccc4c(O)c(OC)c5c(c4n3)=NC(C)(C)N=5)c2N)c(O)c1OC here?
The survivor count was 9 of 10.

How did the survivor count (dose: 500.0 mg/kg/injection, schedule: Q01DX009 (ip), vehicle: saline) turn out when COC(N)=O was run?
The survivor count was 10 of 10.

C[C@]12C=CC(=O)C=C1CC[C@@H]1[C@@H]2C(=O)C[C@@]2(C)[C@H]1CC[C@]2(O)C(=O)CO was tested. Which survivor count [12] did it give?
Its survivor count is 10 of 10.

Which T/C (dose: 0.06 mg/kg/injection, schedule: Q01DX009 (ip), vehicle: saline) does the source give for CC[C@]1(O)C[C@H]2CN(CCc3c([nH]c4ccccc34)[C@@](C(=O)OC)(c3cc4c(cc3OC)N(C=O)[C@H]3[C@@](O)(C(=O)OC)[C@H](OC(C)=O)[C@]5(CC)C=CCN6CC[C@]43[C@@H]65)C2)C1 here?
The T/C was 147 % of control.

What about the T/C [13] of the same compound?
The T/C was 147 % of control.

And the T/C [14]?
Its T/C is 147 % of control.

What about the survivor count [14] of the same compound?
The survivor count was 10 of 10.

And the survivor count (dose: 0.5 mg/kg/injection, schedule: Q01DX009 (ip), vehicle: saline)?
The survivor count was 7 of 10 and 10 of 10.

With O=NN(CCCl)C(=O)Nc1ccc(CCO)cc1 as the compound, how does the survivor count (dose: 6.25 mg/kg/injection, schedule: Q01DX009 (ip), vehicle: saline) read?
The survivor count was 6 of 6.

What about the survivor count [5] of the same compound?
The survivor count was 6 of 6.

CCOC(N)=O was tested. Which survivor count (dose: 1000.0 mg/kg/injection, schedule: Q01DX009 (ip), vehicle: saline) did it give?
Its survivor count is 7 of 10.

For O=C1CN(CCN2CC(=O)NC(=O)C2)CC(=O)N1, which T/C [15] is on record?
Its T/C is 137 % of control.

And the T/C (dose: 60.0 mg/kg/injection, schedule: Q01DX009 (ip), vehicle: saline)?
The T/C was 131 % of control.

And the T/C [2]?
The T/C was 146 % of control.

What about the survivor count [3] of the same compound?
The survivor count was 6 of 6.

Which survivor count [6] does the source give for Cn1c(=O)c2ncnnc2n(C)c1=O here?
Its survivor count is 5 of 6.

What about the survivor count [12] of the same compound?
Its survivor count is 0 of 6 and 2 of 6.

What about the survivor count [16] of the same compound?
Its survivor count is 0 of 6.

And the survivor count [4]?
The survivor count was 0 of 6.

What about the survivor count [17] of the same compound?
The survivor count was 0 of 6.

With CC(=O)OC(C)(C)/C=C/C(=O)[C@](C)(O)[C@H]1[C@H](O)C[C@@]2(C)[C@@H]3CC=C4[C@@H](C[C@H](O)C(=O)C4(C)C)[C@]3(C)C(=O)C[C@]12C as the compound, how does the survivor count (dose: 2.0 mg/kg/injection, schedule: Q01DX009 (ip), vehicle: saline with Tween-80) read?
Its survivor count is 1 of 6.

What about the survivor count (dose: 4.0 mg/kg/injection, schedule: Q01DX009 (ip), vehicle: saline with Tween-80) of the same compound?
The survivor count was 0 of 6.

For CN(Cc1cnc2nc(N)nc(N)c2n1)c1ccc(C(=O)N[C@@H](CCC(=O)O)C(=O)O)cc1, which survivor count [18] is on record?
Its survivor count is 10 of 10.

For c1ccc2sc(SSN3CC4CCC(CC4)C3)nc2c1, which survivor count [19] is on record?
The survivor count was 10 of 10.

With Nc1ccc(Cl)cc1N as the compound, how does the survivor count (dose: 200.0 mg/kg/injection, schedule: Q01DX009 (ip), vehicle: other) read?
Its survivor count is 10 of 10.

What about the survivor count (dose: 400.0 mg/kg/injection, schedule: Q01DX009 (ip), vehicle: other) of the same compound?
Its survivor count is 5 of 10.

Which results are given for N[C@@H](Cc1ccc(N(CCCl)CCCl)cc1)C(=O)O?
survivor count [18]: 10 of 10; survivor count (dose: 6.0 mg/kg/injection, schedule: Q01DX009 (ip), vehicle: saline): 10 of 10

For O=P1(N(CCCl)CCCl)NCCCO1 (stereo not drawn), which T/C [6] is on record?
Its T/C is 130 % of control.

What about the survivor count [16] of the same compound?
The survivor count was 10 of 10.

What about the survivor count [4] of the same compound?
Its survivor count is 9 of 10.

How did the survivor count (dose: 200.0 mg/kg/injection, schedule: Q01DX009 (ip), vehicle: saline with Tween-80) turn out when CCN(CC)CCOc1ccc2c(c1)C(=O)c1cc(OCCN(CC)CC)ccc1-2 was run?
The survivor count was 2 of 6.

What does the source list for COc1ccc2c3c(c4cc(OC)c(OC)cc4c2c1)C[C@H]1CCCCN1C3?
T/C [13]: 130 % of control; survivor count (dose: 1.0 mg/kg/injection, schedule: Q01DX009 (ip), vehicle: saline): 10 of 10

For NC(Cc1ccc(N(CCCl)CCCl)cc1)C(=O)O (stereo not drawn), which survivor count (dose: 16.0 mg/kg/injection, schedule: Q01DX009 (ip), vehicle: saline) is on record?
The survivor count was 9 of 10 and 10 of 10.

What about the survivor count (dose: 32.0 mg/kg/injection, schedule: Q01DX009 (ip), vehicle: saline) of the same compound?
Its survivor count is 2 of 10 and 6 of 10.

Which survivor count [10] does the source give for COc1cc([C@@H]2c3cc4c(cc3C[C@H]3COC(=O)[C@@H]32)OCO4)cc(OC)c1OC here?
Its survivor count is 4 of 6.

And the survivor count (dose: 50.0 mg/kg/injection, schedule: Q01DX009 (ip), vehicle: saline with Tween-80)?
The survivor count was 1 of 6.

Which results are given for O=CC(S)CO (stereo not drawn)?
T/C [16]: 130 % of control; survivor count [4]: 8 of 10

Which T/C [5] does the source give for CCCCc1ccc(NC(=O)N(CCCl)N=O)cc1 here?
Its T/C is 125 % of control.

What about the survivor count [6] of the same compound?
The survivor count was 6 of 6.

With O=c1[nH]cc(F)c(=O)[nH]1 as the compound, how does the survivor count [11] read?
Its survivor count is 10 of 10.

COc1cc(NS(C)(=O)=O)ccc1Nc1c2ccccc2nc2ccccc12 was tested. Which T/C (dose: 0.5 mg/kg/injection, schedule: Q01DX009 (ip), vehicle: Klucel (hydroxypropylcellulose) (HPC)) did it give?
The T/C was 131 % of control [9 of 10 alive].

And the T/C (dose: 1.0 mg/kg/injection, schedule: Q01DX009 (ip), vehicle: water)?
Its T/C is 145 % of control.

What about the survivor count (dose: 4.0 mg/kg/injection, schedule: Q01DX009 (ip), vehicle: Klucel (hydroxypropylcellulose) (HPC)) of the same compound?
The survivor count was 9 of 10.

And the survivor count (dose: 8.0 mg/kg/injection, schedule: Q01DX009 (ip), vehicle: Klucel (hydroxypropylcellulose) (HPC))?
The survivor count was 9 of 10.

And the survivor count (dose: 8.0 mg/kg/injection, schedule: Q01DX009 (ip), vehicle: water)?
The survivor count was 10 of 10.

Which results are given for Clc1ccc2c(c1)/C(=C/c1ccc3c(c1)OCO3)c1cc(Cl)cc(Cl)c1-2?
survivor count [7]: 6 of 6; survivor count [8]: 6 of 6; survivor count [9]: 6 of 6; survivor count [10]: 5 of 6

Which results are given for CC1CCC(NC(=O)N(CCCl)N=O)CC1 (stereo not drawn)?
T/C (dose: 30.0 mg/kg/injection, schedule: Q01DX001 (ip), vehicle: saline): 125 % of control; survivor count (dose: 60.0 mg/kg/injection, schedule: Q01DX001 (ip), vehicle: saline): 4 of 6

How did the T/C (dose: 0.75 mg/kg/injection, schedule: Q01DX009 (ip), vehicle: saline) turn out when O=c1[nH]cc(N(CCCl)CCCl)c(=O)[nH]1 was run?
Its T/C is 125 % of control.

And the survivor count (dose: 1.5 mg/kg/injection, schedule: Q01DX009 (ip), vehicle: saline)?
The survivor count was 10 of 10.

What about the survivor count [18] of the same compound?
The survivor count was 10 of 10.

How did the survivor count [17] turn out when CO[C@H]1/C=C/O[C@@]2(C)Oc3c(C)c(O)c4c(O)c(c(/C=N/N5CCN(C)CC5)c(O)c4c3C2=O)NC(=O)/C(C)=C\C=C\[C@H](C)[C@H](O)[C@@H](C)[C@@H](O)[C@@H](C)[C@H](OC(C)=O)[C@@H]1C was run?
Its survivor count is 5 of 6.

Which survivor count [19] does the source give for Nc1nc(CCl)nc(Nc2ccccc2)n1 here?
The survivor count was 2 of 6.

What does the source list for O=NN(CCCl)C(=O)NCCCl?
survivor count [15]: 10 of 10; survivor count [1]: 10 of 10

How did the survivor count [4] turn out when CN(C)CCCN1c2ccc(O)cc2Sc2ccc(Cl)cc21 was run?
Its survivor count is 1 of 6.

What about the survivor count [17] of the same compound?
Its survivor count is 0 of 6.
